According to patent US8735588B2, “Nematocidal sulfonamides” (E I Du Pont De Nemours and Company, priority 2009, dated 2014):
Some results were stated once for a whole list of compounds, not compound by compound. At least one compound was matched to its structure with a doubt left.

Tested on: southern root-knot nematode (Meloidogyne incognita)
Assay: Test A: control of southern root-knot nematode by soil application, cucumber seedlings, root gall formation
Type: in vivo
Conditions: about 250 J2 larvae, 7 days at 27° C., no significant phytotoxicity
[1] = 250 ppm active ingredient applied to soil
[2] = 50 ppm active ingredient applied to soil

Structure (SMILES) | reduction in root galling, compared to solvent-treated controls (good levels of plant protection) [1] [%] | reduction in root galling, compared to solvent-treated controls (good levels of plant protection) [2] [%]
O=C(NS(=O)(=O)c1ccc(F)cc1Cl)c1cn2cc(C(F)(F)F)ccc2n1 [Compound 301] | ≥ 50 | 
O=C(NS(=O)(=O)c1cc(C(F)(F)F)ccc1Cl)c1cn2ccc(C(F)(F)F)cc2n1 [Compound 313] | ≥ 50 | 
O=C(NS(=O)(=O)c1cc(C(F)(F)F)ccc1Cl)c1cn2cc(C(F)(F)F)cc(Br)c2n1 [Compound 314] | ≥ 50 | ≥ 50
O=C(NS(=O)(=O)c1cc(C(F)(F)F)ccc1Br)c1cn2cc(C(F)(F)F)cc(Br)c2n1 [Compound 315] | ≥ 50 | ≥ 50
O=C(NS(=O)(=O)c1ccccc1F)c1cn2cc(C(F)(F)F)cc(Br)c2n1 [Compound 316] |  | ≥ 50
O=C(NS(=O)(=O)c1ccccc1F)c1cn2cc(C(F)(F)F)cc(Cl)c2n1 [Compound 317] | ≥ 50 | 
O=C(NS(=O)(=O)c1cc(C(F)(F)F)ccc1Br)c1cn2cc(C(F)(F)F)cc(Cl)c2n1 [Compound 319] | ≥ 50 | ≥ 50
CCN(C(=O)c1cn2cc(C(F)(F)F)cc(Cl)c2n1)S(=O)(=O)c1ccccc1Cl [Compound 323] | ≥ 50 | 
Cc1ccc(C(F)(F)F)cc1S(=O)(=O)NC(=O)c1cn2cc(C(F)(F)F)cc(Cl)c2n1 [Compound 329] | ≥ 50 | ≥ 50
COc1cc(S(=O)(=O)NC(=O)c2cn3cc(C(F)(F)F)cc(Cl)c3n2)c(C)cc1Br [Compound 331] | ≥ 50 | ≥ 50
COc1cc(S(=O)(=O)NC(=O)c2cn3cc(C(F)(F)F)cc(Cl)c3n2)c(C)cc1C#N [Compound 332] | ≥ 50 | 
Cc1cc(Cl)c(Cl)cc1S(=O)(=O)NC(=O)c1cn2cc(C(F)(F)F)cc(Cl)c2n1 [Compound 333] | ≥ 50 | 
CC(=O)c1ccccc1S(=O)(=O)NC(=O)c1cn2cc(C(F)(F)F)cc(Cl)c2n1 [Compound 334] | ≥ 50 | 
O=C(NS(=O)(=O)c1cc(Cl)ccc1OC(F)(F)F)c1cn2cc(C(F)(F)F)cc(Cl)c2n1 [Compound 337] |  | ≥ 50
O=C(NS(=O)(=O)c1cc(C(F)(F)F)cc(C(F)(F)F)c1)c1cn2cc(C(F)(F)F)cc(Cl)c2n1 [Compound 340] | ≥ 50 | 
CC(C)c1cc(Br)c(S(=O)(=O)NC(=O)c2cn3cc(C(F)(F)F)cc(Cl)c3n2)cc1Br [Compound 341] | ≥ 50 | ≥ 50
Cc1cc(Br)ccc1S(=O)(=O)NC(=O)c1cn2cc(C(F)(F)F)cc(Cl)c2n1 [Compound 342] | ≥ 50 | ≥ 50

Structure (SMILES) | reduction in root galling, compared to solvent-treated controls (good levels of plant protection) [1] [%] | reduction in root galling, compared to solvent-treated controls (good levels of plant protection) [2] [%]
COc1ccc(C)c(S(=O)(=O)NC(=O)c2cn3cc(C(F)(F)F)cc(Cl)c3n2)c1 [Compound 343] |  | ≥ 50
O=C(NS(=O)(=O)c1cc(F)c(Br)cc1F)c1cn2cc(C(F)(F)F)cc(Cl)c2n1 [Compound 344] | ≥ 50 | 
CC(C)c1cc([N+](=O)[O-])c(S(=O)(=O)NC(=O)c2cn3cc(C(F)(F)F)cc(Cl)c3n2)cc1Br [Compound 345] | ≥ 50 | 
Cc1cc(Cl)ccc1S(=O)(=O)NC(=O)c1cn2cc(C(F)(F)F)cc(Cl)c2n1 [Compound 347] | ≥ 50 | 
CN(C)c1cccc(S(=O)(=O)NC(=O)c2cn3cc(C(F)(F)F)cc(Cl)c3n2)c1 [Compound 348] | ≥ 50 | ≥ 50
CCc1cc(S(=O)(=O)NC(=O)c2cn3cc(C(F)(F)F)cc(Cl)c3n2)c(CC)cc1Br [Compound 355] | ≥ 50 | 
CCc1ccc(Cl)c(S(=O)(=O)NC(=O)c2cn3cc(C(F)(F)F)cc(Cl)c3n2)c1 [Compound 356, 8-chloro-N-[(2-chloro-5-ethylphenyl)sulfonyl]-6-(trifluoromethyl)imidazo[1,2-a]pyridine-2-carboxamide] |  | ≥ 50
CCn1cc(S(=O)(=O)NC(=O)c2cn3cc(C(F)(F)F)cc(Cl)c3n2)c(C)n1 [Compound 357, 8-chloro-N-[(1-ethyl-3-methyl-1H-pyrazol-4-yl)sulfonyl]-6-(trifluoromethyl)-imidazo[1,2-a]pyridine-2-carboxamide] |  | ≥ 50
CCOc1ccc(Cl)c(S(=O)(=O)NC(=O)c2cn3cc(C(F)(F)F)cc(Cl)c3n2)c1 [Compound 359] | ≥ 50 | ≥ 50
O=C(NS(=O)(=O)c1cc(Cl)c([N+](=O)[O-])cc1Cl)c1cn2cc(C(F)(F)F)cc(Cl)c2n1 [Compound 360] | ≥ 50 | 
COc1cc(C)c(S(=O)(=O)NC(=O)c2cn3cc(C(F)(F)F)cc(Cl)c3n2)cc1C [Compound 361] | ≥ 50 | 
Cc1cc(S(=O)(=O)NC(=O)c2cn3cc(C(F)(F)F)cc(Cl)c3n2)c(C)cc1I [Compound 364] | ≥ 50 | 
Cc1cc(S(=O)(=O)NC(=O)c2cn3cc(C(F)(F)F)cc(Cl)c3n2)c(C)cc1C#C[Si](C)(C)C [Compound 365] | ≥ 50 | 
C#Cc1cc(C)c(S(=O)(=O)NC(=O)c2cn3cc(C(F)(F)F)cc(Cl)c3n2)cc1C [Compound 366] | ≥ 50 | ≥ 50
CC(C)Oc1ccc(Cl)c(S(=O)(=O)NC(=O)c2cn3cc(C(F)(F)F)cc(Cl)c3n2)c1 [Compound 367] | ≥ 50 | ≥ 50
O=C(NS(=O)(=O)c1cc(OCC(F)(F)F)ccc1Cl)c1cn2cc(C(F)(F)F)cc(Cl)c2n1 [Compound 371] | ≥ 50 | ≥ 50
C#CCOc1cc(S(=O)(=O)NC(=O)c2cn3cc(C(F)(F)F)cc(Cl)c3n2)c(Cl)cc1Cl [Compound 372] | ≥ 50 | ≥ 50
